Laboratory results: PubChem BioAssay AID1259424 (University of Nebraska Medical Center, 2018)
This is a random part of about 14,000 deposited reagents. 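Higher correlation or smaller distance means closer resemblance to KSR1 loss; control wells, including KSR1 knockdowns, recur on many plates.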 Not all columns of the deposit are shown. No sequences are given here. Not given: the time to read-out.

- Assay: 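Rank knockdowns across the genome by resemblance to the KSR1 depletion profile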 (primary screen)
- Cells: human HCT116 colon cancer cells
- Reagent: siRNA pool against human genes, 50 nM
- Detection: 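Log2 levels of six mRNAs (branched-DNA multiplex), adjusted by two reference genes and the non-targeting median, then scored against the average KSR1 knockdown pattern as Pearson r and euclidean distance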
- Reading the numbers: mean correlation with KSR1 profile: higher = expression change more like KSR1 knockdown

The opening 4 entries, ahead of the listing:
Target gene | mean correlation with KSR1 profile
BSG | -0.335
PEPD | -0.403
ADGRG1 | 0.97
ARHGEF11 | 0.55

The list itself, from the first entry:
Target gene | mean correlation with KSR1 profile
BSG | -0.335
PEPD | -0.403
ADGRG1 | 0.97
ARHGEF11 | 0.55
ZC3H3 | 0.273
LCE2B | 0.474
GAREM1 | -0.549
LENG1 | -0.27
FRMPD3 | 0.793
IQGAP1 | 0.524
ODC1 | 0.25
TFDP3 | -0.239
ATP6V1F | -0.16
UPK3B | 0.0941
ACTL7A | -0.418
CXCR1 | 0.465
MAGT1 | 0.822
CENPB | 0.332
SLC9A1 | 0.0782
SENP6 | -0.258
DXO | 0.504
LRRC1 | -0.626
NECTIN3 | 0.353
TNFRSF10A | -0.00314
SSUH2 | -0.478
GDNF | 0.128
GFOD2 | -0.108
AMMECR1L | 0.784
ARHGAP1 | -0.688
SLC5A3 | 0.00814
LGALS3BP | 0.739
GYPE | -0.441
DCTPP1 | -0.651
NEU3 | 0.0959
TRIM51 | 0.656
CEBPE | -0.43
SEPTIN2 | 0.323
MTA2 | 0.258
BSDC1 | -0.029
SPINT2 | -0.162
HOXB8 | -0.356
PSMC2 | -0.622
GPX5 | -0.256
SNW1 | -0.602
CDKL3 | 0.586
TMEM63C | 0.447
CHKA | 0.806
GNRHR | 0.56
AKAP14 | -0.577
SELE | 0.784
